PubChem BioAssay AID602196 – INSERM | 2012

Test: 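Knock-downs that protect lung cancer cells from cisplatin or sensitise them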
Cells: human A549 lung cancer cells
Reagent: siRNA pair against human genes
Timing: 48 h transfection before cisplatin; time from cisplatin to read-out not stated
Conditions: cisplatin at a dose killing half of control-siRNA cells; exact dose and duration not given
Read-out: 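Cisplatin cell death as a shift from the 50% death seen with control siRNA; siRNAs toxic or growth-blocking alone scored 0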
Direction: two-siRNA summed score (-2 to +2): higher = both siRNAs protect from cisplatin killing; -2 means both sensitise; mean protection from cisplatin (shift in death) and protection from cisplatin (shift in death), siRNA C and protection from cisplatin (shift in death), siRNA D: higher = protection from cisplatin killing
Hit rule: 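siRNAs harmful alone (LDH or WST-1) get 0; others get +1 for less and -1 for more cisplatin killing; genes are active when the two siRNAs give the same sign, summing to ±2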
Calls: active = both siRNAs shift cisplatin killing the same way; inactive = no consistent shift, or siRNA harmful alone
The whole screen tested about 23,000 reagents; shown is a random part of them. 455 of all reagents (2%) count as active. 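Active includes both protection and sensitisation; some change values fall well beyond the stated -50 to +50 range.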 Entries without a mark were called inactive. The numbers tell different reagents against one gene apart. The record does not give: the amount of reagent.

gene	reagent no.	two-siRNA summed score (-2 to +2)	mean protection from cisplatin (shift in death) (%)	protection from cisplatin (shift in death), siRNA C (%)	protection from cisplatin (shift in death), siRNA D (%)
LOC93429	1	0	0.1	8.3	-8.1
UTP14C	1	1	8.2	-1.5	17.9
CBLN4	1	0	4.7	5.5	4
TSLIG1	1	0	0.4	4.8	-3.9
LOC401115	1	0	7.1	7.3	7
NOLC1	1	-1	-18.8	-24	-13.7
RAB19	1	0	1.6	1.2	2.1
LOC440274	1	0	1.9	4.9	-1
ARHGEF10	1	0	-6.3	-9.2	-3.4
HRC	1	1	14	24.2	3.7
PPP6R1	1	0	5.6	9.8	1.4
SERPINB10	1	1	15.5	13	18
NRG3	1	0	8.6	13.5	3.8
PPP2CA	1	0	8.5	4.7	12.4
ECHDC1	1	0	11.7	4.8	18.7
ZC3HAV1L	1	0	0.5	-2	2.9
THRB	1	0	12.5	5.5	19.6
TSR3	1	0	3.3	0.8	5.8
HAO1	1	0	2.6	-1.4	6.5
PPP1R3C	1	1	10.9	-0.1	21.9
PRRX2	1	0	3.7	11.5	-4
DSCR10	1	0	-3.2	-12.7	6.2
GSTO1	1	1	9.5	-1.6	20.6
LOC441470	1	1	25.3	19.4	31.3
SRPRA	1	0	-1.1	-8.6	6.4
ERICH5	1	-1	-6.7	-19.5	6.1
BPIFB3	1	0	-0.1	6.5	-6.7
MIA2	1	0	3.1	-2.7	8.8
MIA2	2	1	6.2	-3.9	16.2
ITGA6	1	-1	-21.7	-20.3	-23.2
LRRN4CL	1	0	-8.8	-10.7	-7
BRD10	1	-1	-7.2	8.7	-23.1
CD80	1	0	3.4	3.8	2.9
CASP8AP2	1	0	-11.8	-8	-15.6
LOC388011	1	0	1.4	15.9	-13
LOC441598	1	1	13.2	13.2	13.1
MTHFR	1	-1	-4.6	3.5	-12.6
ZDHHC19	1	0	0.7	-1	2.5
LOC440588	1	0	9.7	7.5	11.9
GLYAT	1	1	8.6	11.8	5.3
LINC00692	1	1	8.7	-0.5	17.9
FBXO6	1	-2 (active)	-35.5	-41.5	-29.5
OR52J3	1	1	9.6	7	12.2
LOC389281	1	0	2.3	4.6	-0.1
LOC440122	1	0	-1.8	-14.5	10.8
POLR3B	1	0	1.1	0.5	1.7
LOC389099	1	0	5.9	2.7	9
GGNBP2	1	0	-2.4	0.6	-5.3
KCND2	1	0	5.4	9	1.7
VMAC	1	1	15.8	15.2	16.4
DHRS12	1	0	-3.7	-3.3	-4
RFX6	1	1	11.3	3.6	19.1
ARMC3	1	0	4.1	4.4	3.8
PLEKHG7	1	1	10.6	15.5	5.8
ANP32D	1	0	5.3	15.1	-4.5
ANP32D	2	0	21.4	19.8	23.1
ARHGAP27P2	1	1	9.3	8.9	9.7
LOC401967	1	1	16.1	11.5	20.8
KIAA0888	1	0	3.6	-6.6	13.8
PRR12	1	0	8.7	8.3	9.2
TIAM1	1	0	4.3	0.7	7.8
PARP6	1	0	2.6	9.1	-3.9
ASH2L	1	0	0.8	-6.9	8.6
SLAIN1	1	0	17.8	22.9	12.7
NBR1	1	0	-3.2	-20.9	14.4
PHC2	1	0	15.1	21.1	9
SLK	1	1	19.7	10.4	29.1
LOC143243	1	0	0.5	-7	7.9
RPL23AP32	1	-1	-10.4	-18.9	-1.9
AMIGO1	1	1	8.3	13	3.6
LOC399959	1	0	5.9	5.6	6.2
MPC1	1	0	4	3.6	4.5
KIAA1679	1	0	1.3	12.9	-10.2

Reformatted: results already given
{"gene":"LOC389099","reagent no.":1,"two-siRNA summed score (-2 to +2)":0,"mean protection from cisplatin (shift in death) (%)":5.9,"protection from cisplatin (shift in death), siRNA C (%)":2.7,"protection from cisplatin (shift in death), siRNA D (%)":9}
{"gene":"GGNBP2","reagent no.":1,"two-siRNA summed score (-2 to +2)":0,"mean protection from cisplatin (shift in death) (%)":-2.4,"protection from cisplatin (shift in death), siRNA C (%)":0.6,"protection from cisplatin (shift in death), siRNA D (%)":-5.3}
{"gene":"KCND2","reagent no.":1,"two-siRNA summed score (-2 to +2)":0,"mean protection from cisplatin (shift in death) (%)":5.4,"protection from cisplatin (shift in death), siRNA C (%)":9,"protection from cisplatin (shift in death), siRNA D (%)":1.7}
{"gene":"VMAC","reagent no.":1,"two-siRNA summed score (-2 to +2)":1,"mean protection from cisplatin (shift in death) (%)":15.8,"protection from cisplatin (shift in death), siRNA C (%)":15.2,"protection from cisplatin (shift in death), siRNA D (%)":16.4}
{"gene":"DHRS12","reagent no.":1,"two-siRNA summed score (-2 to +2)":0,"mean protection from cisplatin (shift in death) (%)":-3.7,"protection from cisplatin (shift in death), siRNA C (%)":-3.3,"protection from cisplatin (shift in death), siRNA D (%)":-4}
{"gene":"RFX6","reagent no.":1,"two-siRNA summed score (-2 to +2)":1,"mean protection from cisplatin (shift in death) (%)":11.3,"protection from cisplatin (shift in death), siRNA C (%)":3.6,"protection from cisplatin (shift in death), siRNA D (%)":19.1}
